Paper PMC13615677
Results are given in words; binding and its absence hold for the method and conditions named. In cells and extracts the contact can be indirect. Some binding calls cover weakened binding; strength is not graded here.

Protein sequences, listed by entry. Tags and fused reporters are not part of them. Residues count along the entry.
UniProt P70302, residues 23-685: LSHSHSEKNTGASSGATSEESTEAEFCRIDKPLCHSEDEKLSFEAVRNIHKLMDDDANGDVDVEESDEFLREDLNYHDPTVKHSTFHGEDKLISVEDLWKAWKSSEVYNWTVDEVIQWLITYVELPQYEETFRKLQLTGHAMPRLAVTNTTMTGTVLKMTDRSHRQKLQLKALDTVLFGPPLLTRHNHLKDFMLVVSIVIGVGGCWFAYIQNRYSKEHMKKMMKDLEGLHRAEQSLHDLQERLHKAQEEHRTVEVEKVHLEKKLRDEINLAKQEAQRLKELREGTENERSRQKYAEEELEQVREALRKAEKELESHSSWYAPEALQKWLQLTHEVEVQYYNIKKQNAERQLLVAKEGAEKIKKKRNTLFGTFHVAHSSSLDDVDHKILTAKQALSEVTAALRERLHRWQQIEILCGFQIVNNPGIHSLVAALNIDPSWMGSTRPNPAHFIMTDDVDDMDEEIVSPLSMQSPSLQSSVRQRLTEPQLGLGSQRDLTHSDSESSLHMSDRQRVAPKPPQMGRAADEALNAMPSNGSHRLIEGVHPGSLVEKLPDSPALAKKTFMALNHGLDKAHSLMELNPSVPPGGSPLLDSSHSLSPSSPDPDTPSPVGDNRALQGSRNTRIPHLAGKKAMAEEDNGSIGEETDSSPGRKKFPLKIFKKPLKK

Legend:
[1] = target: T1, DHHC21 (zDHHC21), wild type (mouse (endogenous in spleen)) (UniProt Q9D270); assay: co-IP; spleen lysates (1 mg; 1% dodecyl-β-D-maltoside in DPBS) of WT and depilated mice; anti-zDHHC21 polyclonal antibody overnight at 4°C, protein A agarose 1 h at RT, three washes in lysis buffer; western blot for STIM1
T1 sequence: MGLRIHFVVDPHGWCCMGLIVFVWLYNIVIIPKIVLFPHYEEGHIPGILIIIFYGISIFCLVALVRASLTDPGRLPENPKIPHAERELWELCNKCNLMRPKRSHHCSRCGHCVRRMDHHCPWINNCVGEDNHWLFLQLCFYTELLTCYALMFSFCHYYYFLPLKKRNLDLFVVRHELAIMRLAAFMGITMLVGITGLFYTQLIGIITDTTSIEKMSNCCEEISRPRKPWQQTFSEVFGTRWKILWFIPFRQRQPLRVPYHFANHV

[2] = target: T2, DHHC21 ΔF233 (depilated mutant) (mouse (endogenous in spleen)) (UniProt Q9D270); assay: as above
T2 sequence: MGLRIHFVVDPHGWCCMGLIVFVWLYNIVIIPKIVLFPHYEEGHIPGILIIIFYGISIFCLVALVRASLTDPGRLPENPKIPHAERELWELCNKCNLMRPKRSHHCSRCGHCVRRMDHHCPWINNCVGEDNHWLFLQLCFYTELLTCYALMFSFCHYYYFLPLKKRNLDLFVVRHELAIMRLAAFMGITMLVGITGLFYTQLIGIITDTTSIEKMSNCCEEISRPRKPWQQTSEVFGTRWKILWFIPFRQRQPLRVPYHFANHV

binding [1]: binds
binding [2]: binds
Substance: stromal interaction molecule 1 (STIM1) (from UniProt P70302 23-685)
